These are yes or no findings as the source states them, for the method shown. Binding seen in cells or lysates may run through a third protein. Some results given as binding are weak or reduced against the parent protein; the word gives no strength.
Legend:
[1] = target: STIM1 (human) (UniProt Q13586); assay: co-IP; CHO cells transiently transfected with STIM1 and either the P100 or the CTF construct; lysate immunoprecipitated with anti-STIM1 antibody, blot probed with anti-PC1 CT antibody
[2] = target: Polycystin-1 cleavage product P100 (recombinant P100 construct starting at V3645) (human) (UniProt P98161); assay: co-IP; CHO cells transiently transfected with STIM1 and P100, or STIM1 alone; Flag-tagged P100 immunoprecipitated with flag conjugated beads, blot probed with anti-STIM1 antibody

Chains of the proteins cited; added tags and fusions are not shown. Lines headed by an entry give the natural chain unless they say otherwise; changes in a name come on top. Residues count along the entry.
UniProt Q13586, residues 23-685: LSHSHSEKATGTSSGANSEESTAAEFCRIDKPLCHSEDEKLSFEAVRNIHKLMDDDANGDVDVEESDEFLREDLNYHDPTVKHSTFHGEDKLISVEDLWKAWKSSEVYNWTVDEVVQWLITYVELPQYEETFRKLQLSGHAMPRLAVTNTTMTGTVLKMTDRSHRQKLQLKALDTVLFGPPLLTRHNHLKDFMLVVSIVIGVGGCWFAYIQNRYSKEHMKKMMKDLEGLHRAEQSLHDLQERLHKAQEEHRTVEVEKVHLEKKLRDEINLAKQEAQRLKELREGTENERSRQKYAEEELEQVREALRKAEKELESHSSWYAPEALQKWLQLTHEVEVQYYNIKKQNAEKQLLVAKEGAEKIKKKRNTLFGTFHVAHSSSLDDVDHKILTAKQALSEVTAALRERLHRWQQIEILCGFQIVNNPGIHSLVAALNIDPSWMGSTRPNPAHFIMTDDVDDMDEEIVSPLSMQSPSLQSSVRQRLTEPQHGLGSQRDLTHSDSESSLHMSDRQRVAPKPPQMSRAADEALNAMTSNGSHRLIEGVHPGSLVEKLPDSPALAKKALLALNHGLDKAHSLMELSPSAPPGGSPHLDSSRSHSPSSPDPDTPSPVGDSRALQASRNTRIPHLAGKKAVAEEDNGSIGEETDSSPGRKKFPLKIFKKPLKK
UniProt P98161, residues 3646-4303: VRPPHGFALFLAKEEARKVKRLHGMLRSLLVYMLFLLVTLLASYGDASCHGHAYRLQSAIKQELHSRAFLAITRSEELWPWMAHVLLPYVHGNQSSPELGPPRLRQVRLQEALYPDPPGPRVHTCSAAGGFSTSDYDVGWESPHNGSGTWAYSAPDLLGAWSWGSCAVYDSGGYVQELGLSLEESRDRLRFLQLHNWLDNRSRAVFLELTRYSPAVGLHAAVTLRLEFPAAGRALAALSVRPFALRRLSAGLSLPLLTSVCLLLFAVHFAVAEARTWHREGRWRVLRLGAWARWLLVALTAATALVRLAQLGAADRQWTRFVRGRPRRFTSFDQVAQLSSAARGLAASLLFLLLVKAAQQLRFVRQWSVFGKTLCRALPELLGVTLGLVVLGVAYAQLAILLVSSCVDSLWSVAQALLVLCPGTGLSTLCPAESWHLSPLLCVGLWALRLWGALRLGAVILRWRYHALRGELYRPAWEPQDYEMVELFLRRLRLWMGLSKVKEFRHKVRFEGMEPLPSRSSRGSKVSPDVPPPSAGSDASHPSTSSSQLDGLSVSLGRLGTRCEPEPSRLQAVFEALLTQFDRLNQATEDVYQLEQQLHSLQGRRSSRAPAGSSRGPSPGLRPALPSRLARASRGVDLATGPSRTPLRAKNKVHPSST

Row | Substance | binding [1] | binding [2]
1 | Polycystin-1 cleavage product P100 (recombinant P100 construct starting at V3645) (from UniProt P98161-3 3645-4302) (domain or fragment) | binds | 
2 | STIM1 (from UniProt Q13586 23-685) |  | binds

— article PMC2925899
